Results taken from patent US9938238B2, “Anti-auxin compounds” (priority 2015, dated 2018).
At least one compound was matched to its structure with a doubt left.

System: ctr1-3 seedlings
Test: Seedling triple response of constitutive ethylene response mutant ctr1-3 (library screen and follow-up)
Assay type: in vivo, Arabidopsis
Settings: etiolated ctr1-3 in air, 4 d, 50 μM of each chemical
Procedure: For screening for chemicals that reduce ethylene response, Arabidopsis ctr1-3 seeds were planted on a microtiter plate containing PNS media in the presence of individual chemicals (50 μM concentration of each) from the Microsource Spectrum Collection. Seedlings were grown in the dark for 4 d after which they were scored for manifestation of the ethylene responsive triple response. For all other growth experiments, seedlings were planted on PNS media supplemented with the relevant chemical (Deslauriers and Larsen, 2010). For conditions requiring pamoic acid, media was supplemented with Pamoic acid disodium salt (Sigma Life Science, St. Louis, Mo.). Measurement of ethylene production was conducted as previously described (Deslauriers and Larsen, 2010).
A chemical library screen was performed in which etiolated seedlings of the constitutive ethylene response mutant, ctr1-3, were grown in air for 4 d in the presence of chemicals from the Microsource Spectrum Collection, a bioactive and natural compound library consisting of 2000 different compounds. ctr1-3 seedlings were scored for presentation of the ethylene regulated seedling triple response, consisting of severe hypocotyl and root shortening and exaggerated apical hook formation.

## OCCOCCN1CCN(C(c2ccccc2)c2ccc(Cl)cc2)CC1 (centres unmarked) [Hydroxyzine pamoate]
  apical hook formation in chemical library screen: blocked apical hook formation
  root length in chemical library screen: measurably longer roots
